# Data published in PubChem BioAssay AID445 (National Center for Advancing Translational Sciences (NCATS), 2006).
# Some of the results follow. These are further read-outs of the screen, such as a control signal, another cell line or another target. No call is given for them. The list favours compounds with an active or inconclusive main result. Potencies come from curve fits of mixed quality, noted in brackets.
# Assay: IkB Signaling
# Settings: ABC-DLBCL IkBa-CBG/CBR dual luciferase ratio (green luciferase fused to IkBa over red control in OCI-Ly3 lymphoma cells), 4 h
# Summary of the method: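 Luminescence ratio of IκBα-fused green versus native red beetle luciferase in OCI-Ly3 cells, 4 h post-doxycycline with compound; red signal alone, scaled from basal (0%) to zero light (-100%), flagged nonspecific or cytotoxic effects.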
# [1] = measured here: control luc red channel unless noted
smiles,measurement,setting,value
CCCCCOC(=O)NCC(O)c1ccccc1 (stereo unspecified),AC50,[1],"10 µM [falling, partial curve]"
CCc1cccc(NC(=O)C(NS(=O)(=O)c2ccc3nc(C)sc3c2)C(C)C)c1 (stereo unspecified),AC50,[1],"25.1 µM [falling, single point]"
O=C(C1=C(O)C(=O)N(CCN2CCOCC2)C1c1ccccn1)c1cccs1 (stereo unspecified),AC50,[1],"25.1 µM [falling, single point]"
CCOC(=O)c1ccn(-c2nc(-c3ccco3)cc(C(F)(F)F)n2)n1,AC50,[1],"25.1 µM [falling, partial curve]"
COc1ccccc1N1CCN(c2ccc(-c3ccccc3)nn2)CC1,AC50,[1],"631 nM [rising, full curve] [measured here: IkB-luc green channel]"
O=C(Nc1nc2ccccc2s1)c1ccc(S(=O)(=O)N2CCCC2)cc1,AC50,[1],"0.1 µM [falling, partial curve, poor fit]"
O=S(=O)(c1ccc2nc(NCc3ccccc3Cl)ccc2c1)N1CCCCC1,AC50,[1],"2.51 µM [rising, full curve]"
CC(O)CN1C(=O)C(CC(=O)Nc2ccc(Cl)cc2)SC1=Nc1ccccc1 (stereo unspecified),AC50,[1],"15.8 µM [falling, partial curve]"
CC(CNC(=O)c1ccc(CSc2nc3ccncc3n2Cc2ccccc2)cc1)c1ccccc1 (stereo unspecified),AC50,[1],"12.6 µM [falling, partial curve]"
COc1ccc(CNC(=O)CSc2nc(-c3ccc(OC)c(OC)c3)cc(C(F)(F)F)n2)cc1,AC50,[1],"0.794 µM [rising, full curve, poor fit]"
COc1cc(Cl)c(NS(=O)(=O)c2ccc(-c3cnc(C4CC4)o3)cc2)c(OC)c1,AC50,[1],"2 µM [rising, partial curve]"
O=C(CN1c2cccc3cccc(c23)S1(=O)=O)NCc1ccc2c(c1)OCO2,AC50,[1],"12.6 µM [falling, partial curve]"
CC(C)CCNC(=O)C(c1ccco1)N(Cc1cccs1)C(=O)Cn1nnc2ccccc21 (stereo unspecified),AC50,[1],"3.16 µM [falling, partial curve]"
CCCc1ccc(-c2ccc(C(=O)Oc3ccc(OCC)cc3)cc2)nc1,AC50,[1],"1.26 µM [falling, full curve]"
Cc1ccc(CCNC(=O)CS(=O)Cc2nc(-c3ccccc3C)oc2C)cc1 (stereo unspecified),AC50,[1],"25.1 µM [falling, partial curve]"
CCN(Cc1ccccc1)C(=O)Cn1c(=O)n(-c2ccc(Cl)cc2)c(=O)c2c(C)c(C(=O)N(C)C)sc21,AC50,[1],"1.26 µM [rising, full curve]"
CCc1ccc(OCc2nc(-c3ccc(OC)cc3)no2)c(Br)c1,AC50,[1],"5.01 µM [falling, partial curve]"
Cc1nn(-c2ccc(N3CCCC3)nn2)c(C)c1CCC(=O)Nc1ccc(F)cc1F,AC50,[1],"31.6 µM [falling, single point]"
O=C(NCc1ccc(F)cc1)c1ccc(Nc2nc3ccccc3n3nnnc23)cc1,AC50,[1],"2.51 µM [falling, partial curve]"
CCCC12CN3CC(CCC)(CN(C1)C3c1ccccc1)C2=O (stereo unspecified),AC50,[1],"31.6 µM [falling, partial curve]"
CCOC(=O)c1ccc(NC(=O)NCCOCCn2c(=O)oc3ccccc32)cc1,AC50,[1],"12.6 µM [falling, partial curve]"
CC/C(=C(\c1ccccc1)c1ccc(OCCN(C)C)cc1)c1ccc(O)cc1,AC50,[1],"15.8 µM [falling, partial curve]"
CCS(=O)(=O)c1nc(S(=O)(=O)c2ccc(C)cc2)c(NCCCOC)s1,AC50,[1],"25.1 µM [falling, partial curve, poor fit]"
Cn1nnc(NC(=O)COc2ccc(C3CCCCC3)cc2)n1,AC50,[1],"12.6 µM [falling, partial curve]"
O=C(Nc1ccccc1Br)C(Cc1ccccc1)NS(=O)(=O)c1cccc2nsnc12 (stereo unspecified),AC50,[1],"10 µM [falling, partial curve]"
COc1ccccc1NC(=O)C1CCN(C(=O)c2sc3nc[nH]c(=O)c3c2C)CC1,AC50,[1],"0.631 µM [rising, full curve]"
CC(=O)c1ccc(NC(=O)c2ccc(-c3ccc(Cl)cc3)o2)cc1,AC50,[1],"1 µM [rising, full curve, poor fit]"
COc1cccc(CSc2nc3n(n2)C(CC(C)C)C(C(=O)Nc2ccccc2OC)=C(C)N3)c1 (stereo unspecified),AC50,[1],"0.2 µM [falling, full curve]"
CCOc1ccc(S(=O)(=O)N(CC(=O)NCc2ccccc2OC)c2ccccc2)cc1,AC50,[1],"15.8 µM [falling, partial curve]"
CC(OC(=O)c1cc(=O)[nH]c2ccccc12)c1ccccc1 (stereo unspecified),AC50,[1],"20 µM [falling, single point]"
O=C(O)c1cccc(NC(=O)c2ccccc2)c1,AC50,[1],"7.94 µM [falling, partial curve]"
COc1ccc(C(=O)N2CCC(C(=O)Nc3ccc(Cl)cc3)CC2)cc1,AC50,[1],"31.6 µM [falling, single point]"
CCOC(=O)C1CCN(C(=O)COc2cc(C)c(Br)cc2C)CC1,AC50,[1],"2 µM [falling, full curve]"
CC(C(=O)NCC1CCCO1)N(C(=O)c1snc(C(N)=O)c1N)c1ccccc1 (stereo unspecified),AC50,[1],"63.1 nM [rising, full curve] [measured here: IkB-luc green channel]"
Cc1ccccc1Nc1c(-c2ccc(Br)o2)nc2ccc(Cl)cn12,AC50,[1],"7.94 µM [falling, partial curve]"
CCc1ccc(NC(=O)Cc2c(C(=O)O)c(C)cn2C)cc1,AC50,[1],"15.8 µM [rising, partial curve]"
O=C(CC(SCCO)c1ccc(F)cc1)c1ccco1 (stereo unspecified),AC50,measured here: IkB-luc green channel,"31.6 µM [rising, partial curve]"
same,AC50,measured here: control luc red channel,"39.8 µM [falling, single point]"
CCN(Cc1nc(-c2ccc(OC)cc2)oc1C)S(=O)(=O)c1ccc(C)cc1,AC50,[1],"31.6 µM [falling, partial curve]"
Cc1c(CCNC(=O)c2ccco2)sc2nc(-c3ccc(F)cc3)nn12,AC50,[1],"3.98 µM [rising, single point]"
Cc1ccc(NC(=O)CN2CCSc3ccc(S(=O)(=O)N4CCCC4)cc32)cc1,AC50,[1],"12.6 µM [falling, partial curve]"

# 3 entries from above, as tab-separated lines.
smiles	measurement	setting	value
O=C(C1=C(O)C(=O)N(CCN2CCOCC2)C1c1ccccn1)c1cccs1 (stereo unspecified)	AC50	[1]	25.1 µM [falling, single point]
CCOC(=O)c1ccn(-c2nc(-c3ccco3)cc(C(F)(F)F)n2)n1	AC50	[1]	25.1 µM [falling, partial curve]
Cc1ccc(CCNC(=O)CS(=O)Cc2nc(-c3ccccc3C)oc2C)cc1 (stereo unspecified)	AC50	[1]	25.1 µM [falling, partial curve]
